# Measured values: US20160367587
# Test system: DNase
# Experiment: enzyme reaction in vitro
# Settings: HES loop diminishes nuclease sensitivity; real-time digestion at 37 C; no value given; purified native protein; single-stranded DNA
sequence,measurement,value
CCCGGCGATATCATCATCCATAAC [HES beta-actin oligonucleotide],activity on this sequence,less active

# The exact form of at least one protein or probe is not confirmed. Weaker means in comparison with the reference protein, sequence or condition of that experiment.
